Data as given in patent publication US20030100605A1, “Methods of treating cancer with angiogenesis inhibitors” (priority 2001, published 2003).

Tested on: B220+/Tg IgM+ donor-derived B cells in spleen and BM
Test: Lymphoid engraftment after stem cell rescue by flow cytometry
Format: in vivo, FVB mice
Conditions: for Bone Marrow B220+/IgM+ / Spleen B220+/IgM+: mean ± SEM
[1] = Day 28 post-BMT, all TNP-470 dose levels

## CO[C@@H]1[C@H](OC(=O)NC(=O)CCl)CC[C@@]2(CO2)[C@H]1[C@]1(C)O[C@@H]1CC=C(C)C [TNP-470]
[1]
  Bone Marrow B220+/IgM+: 22% ± 1.8
  Spleen B220+/IgM+: 14% ± 1.4
Continuous infusion 10 mg/kg/week, day 28
  Lymphoid engraftment versus saline and no-pump controls: no differences were observed
Dose level 3, Day 21
  Bone Marrow B220+/IgM+: 27% ± 4.1
  Spleen B220+/IgM+: 13% ± 2.8
Dose level 3, Day 24
  Bone Marrow B220+/IgM+: 25% ± 2.7
  Spleen B220+/IgM+: 31% ± 5.4
Dose level 3, Day 28
  Bone Marrow B220+/IgM+: 28% ± 4.2
  Spleen B220+/IgM+: 11% ± 2.0
